No constants are given. Whether binding was seen depends on the method and setting. Binding seen in cells or lysates may run through a third protein. Some binding calls cover weakened binding; strength is not graded here. For some of these results: Sequences can lack the tags named with a protein.
T1: FLAG-GMNC (mouse) (UniProt Q3URY2)
T1 sequence: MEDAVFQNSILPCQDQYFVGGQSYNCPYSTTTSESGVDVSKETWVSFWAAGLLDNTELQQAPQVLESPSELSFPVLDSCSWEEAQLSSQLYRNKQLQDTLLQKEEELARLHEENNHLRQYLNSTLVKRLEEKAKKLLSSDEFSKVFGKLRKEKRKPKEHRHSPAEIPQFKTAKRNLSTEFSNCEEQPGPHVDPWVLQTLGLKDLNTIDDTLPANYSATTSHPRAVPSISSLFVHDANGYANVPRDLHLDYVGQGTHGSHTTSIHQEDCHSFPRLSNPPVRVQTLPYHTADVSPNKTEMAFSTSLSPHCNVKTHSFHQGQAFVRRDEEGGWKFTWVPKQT

Protein sequences, listed by entry. Tags and fused reporters are not part of them.
UniProt Q9R210: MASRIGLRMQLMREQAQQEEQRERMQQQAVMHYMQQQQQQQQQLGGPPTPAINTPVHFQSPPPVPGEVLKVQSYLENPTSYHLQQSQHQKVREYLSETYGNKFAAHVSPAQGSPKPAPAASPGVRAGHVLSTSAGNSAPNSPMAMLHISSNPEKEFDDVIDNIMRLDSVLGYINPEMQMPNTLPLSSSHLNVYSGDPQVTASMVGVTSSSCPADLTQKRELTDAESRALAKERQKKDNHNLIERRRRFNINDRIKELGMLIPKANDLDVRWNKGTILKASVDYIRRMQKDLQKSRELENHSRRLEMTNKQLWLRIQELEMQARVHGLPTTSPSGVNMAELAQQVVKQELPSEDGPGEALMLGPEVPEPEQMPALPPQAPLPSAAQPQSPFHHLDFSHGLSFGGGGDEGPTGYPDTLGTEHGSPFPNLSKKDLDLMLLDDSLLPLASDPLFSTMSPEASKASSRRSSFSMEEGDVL

T2: FLAG-LHX2 (mouse) (UniProt Q9Z0S2)
T2 sequence: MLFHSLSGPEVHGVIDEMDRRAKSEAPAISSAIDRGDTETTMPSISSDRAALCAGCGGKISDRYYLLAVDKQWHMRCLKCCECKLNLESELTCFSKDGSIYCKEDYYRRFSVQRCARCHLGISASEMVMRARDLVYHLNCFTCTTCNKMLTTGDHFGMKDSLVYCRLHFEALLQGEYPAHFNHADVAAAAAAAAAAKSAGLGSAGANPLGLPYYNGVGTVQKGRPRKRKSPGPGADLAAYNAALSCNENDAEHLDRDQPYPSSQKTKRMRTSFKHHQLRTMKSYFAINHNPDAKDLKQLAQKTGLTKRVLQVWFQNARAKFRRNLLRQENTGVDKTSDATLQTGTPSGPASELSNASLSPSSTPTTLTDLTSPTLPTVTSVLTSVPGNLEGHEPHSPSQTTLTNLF

T3: FLAG-GMNN (mouse) (UniProt O88513)
T3 sequence: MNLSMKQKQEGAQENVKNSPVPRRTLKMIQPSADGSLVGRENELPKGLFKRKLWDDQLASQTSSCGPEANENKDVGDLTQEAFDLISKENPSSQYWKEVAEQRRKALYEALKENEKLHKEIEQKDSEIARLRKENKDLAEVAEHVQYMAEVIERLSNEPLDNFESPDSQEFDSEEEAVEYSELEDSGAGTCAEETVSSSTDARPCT


How the values were obtained:
FLAG-GMNC (mouse) = target: T1, FLAG-GMNC (mouse); test: co-IP; FLAG IP from lysate of HEK293T cells co-expressing a FLAG-tagged protein with GFP or GFP-TFEB for 36 h; Pan Mouse IgG Dynabeads pre-bound with FLAG antibody, overnight at 4 °C; washes with RIPA, low salt, high salt, LiCl buffers and 10 mM Tris-HCl pH 8.0; immunoblot
FLAG-LHX2 (mouse) = target: T2, FLAG-LHX2 (mouse); test: as above
FLAG-GMNN (mouse) = target: T3, FLAG-GMNN (mouse); test: as above
[1] = target: TFEB (transcription factor EB), endogenous in mouse EPCs (mouse (endogenous in cultured EPCs)) (UniProt Q9R210); test: co-IP; endogenous TFEB IP from lysate of SS d + 5 mouse EPCs; Protein A Dynabeads pre-bound with TFEB antibody, overnight at 4 °C; washes with RIPA, low salt, high salt, LiCl buffers and 10 mM Tris-HCl pH 8.0; IgG as control; immunoblot

| binding (FLAG-GMNC (mouse)) | binding (FLAG-LHX2 (mouse)) | binding (FLAG-GMNN (mouse)) | binding [1] | Molecule |
| --- | --- | --- | --- | --- |
| no binding | binds | no binding | – | GFP-TFEB (from UniProt Q9R210 1-475) |
| – | – | – | binds | LHX2, endogenous in mouse EPCs (protein, UniProt Q9Z0S2 1-406) MLFHSLSGPEVHGVIDEMDRRAKSEAPAISSAIDRGDTETTMPSISSDRAALCAGCGGKISDRYYLLAVDKQWHMRCLKCCECKLNLESELTCFSKDGSIYCKEDYYRRFSVQRCARCHLGISASEMVMRARDLVYHLNCFTCTTCNKMLTTGDHFGMKDSLVYCRLHFEALLQGEYPAHFNHADVAAAAAAAAAAKSAGLGSAGANPLGLPYYNGVGTVQKGRPRKRKSPGPGADLAAYNAALSCNENDAEHLDRDQPYPSSQKTKRMRTSFKHHQLRTMKSYFAINHNPDAKDLKQLAQKTGLTKRVLQVWFQNARAKFRRNLLRQENTGVDKTSDATLQTGTPSGPASELSNASLSPSSTPTTLTDLTSPTLPTVTSVLTSVPGNLEGHEPHSPSQTTLTNLF |

From paper PMC12327645
